The supplement of paper PMC12067093, “Discovery and optimisation of a covalent ligand for TRIM25 and its application to targeted protein ubiquitination” (Chemical Science, 2025)
Some of the results follow.

Chains of the proteins cited; added tags and fusions are not shown. Lines headed by an entry give the natural chain unless they say otherwise; changes in a name come on top.
UniProt P29590: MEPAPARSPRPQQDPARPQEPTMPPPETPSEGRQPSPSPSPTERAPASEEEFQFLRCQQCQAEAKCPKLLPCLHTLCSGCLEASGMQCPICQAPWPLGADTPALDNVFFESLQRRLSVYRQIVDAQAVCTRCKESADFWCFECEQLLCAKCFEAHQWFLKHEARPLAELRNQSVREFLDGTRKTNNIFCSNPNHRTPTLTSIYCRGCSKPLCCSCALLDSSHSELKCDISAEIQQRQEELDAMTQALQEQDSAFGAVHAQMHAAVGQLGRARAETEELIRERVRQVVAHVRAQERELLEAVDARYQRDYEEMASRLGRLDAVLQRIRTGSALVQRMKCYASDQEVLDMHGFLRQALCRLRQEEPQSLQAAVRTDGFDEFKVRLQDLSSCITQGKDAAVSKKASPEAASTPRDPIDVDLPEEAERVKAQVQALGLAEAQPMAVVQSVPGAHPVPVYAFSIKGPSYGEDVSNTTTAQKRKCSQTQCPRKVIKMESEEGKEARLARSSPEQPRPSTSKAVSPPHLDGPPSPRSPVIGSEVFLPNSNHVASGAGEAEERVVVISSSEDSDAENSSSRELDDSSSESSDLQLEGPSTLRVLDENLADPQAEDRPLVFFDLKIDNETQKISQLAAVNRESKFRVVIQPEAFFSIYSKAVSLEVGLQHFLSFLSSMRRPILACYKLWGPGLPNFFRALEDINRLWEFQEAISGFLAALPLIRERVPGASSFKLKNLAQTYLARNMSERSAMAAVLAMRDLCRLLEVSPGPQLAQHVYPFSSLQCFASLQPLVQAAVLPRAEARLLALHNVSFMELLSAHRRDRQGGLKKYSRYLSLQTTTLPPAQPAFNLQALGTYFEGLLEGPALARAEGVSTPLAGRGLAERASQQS
UniProt P16885: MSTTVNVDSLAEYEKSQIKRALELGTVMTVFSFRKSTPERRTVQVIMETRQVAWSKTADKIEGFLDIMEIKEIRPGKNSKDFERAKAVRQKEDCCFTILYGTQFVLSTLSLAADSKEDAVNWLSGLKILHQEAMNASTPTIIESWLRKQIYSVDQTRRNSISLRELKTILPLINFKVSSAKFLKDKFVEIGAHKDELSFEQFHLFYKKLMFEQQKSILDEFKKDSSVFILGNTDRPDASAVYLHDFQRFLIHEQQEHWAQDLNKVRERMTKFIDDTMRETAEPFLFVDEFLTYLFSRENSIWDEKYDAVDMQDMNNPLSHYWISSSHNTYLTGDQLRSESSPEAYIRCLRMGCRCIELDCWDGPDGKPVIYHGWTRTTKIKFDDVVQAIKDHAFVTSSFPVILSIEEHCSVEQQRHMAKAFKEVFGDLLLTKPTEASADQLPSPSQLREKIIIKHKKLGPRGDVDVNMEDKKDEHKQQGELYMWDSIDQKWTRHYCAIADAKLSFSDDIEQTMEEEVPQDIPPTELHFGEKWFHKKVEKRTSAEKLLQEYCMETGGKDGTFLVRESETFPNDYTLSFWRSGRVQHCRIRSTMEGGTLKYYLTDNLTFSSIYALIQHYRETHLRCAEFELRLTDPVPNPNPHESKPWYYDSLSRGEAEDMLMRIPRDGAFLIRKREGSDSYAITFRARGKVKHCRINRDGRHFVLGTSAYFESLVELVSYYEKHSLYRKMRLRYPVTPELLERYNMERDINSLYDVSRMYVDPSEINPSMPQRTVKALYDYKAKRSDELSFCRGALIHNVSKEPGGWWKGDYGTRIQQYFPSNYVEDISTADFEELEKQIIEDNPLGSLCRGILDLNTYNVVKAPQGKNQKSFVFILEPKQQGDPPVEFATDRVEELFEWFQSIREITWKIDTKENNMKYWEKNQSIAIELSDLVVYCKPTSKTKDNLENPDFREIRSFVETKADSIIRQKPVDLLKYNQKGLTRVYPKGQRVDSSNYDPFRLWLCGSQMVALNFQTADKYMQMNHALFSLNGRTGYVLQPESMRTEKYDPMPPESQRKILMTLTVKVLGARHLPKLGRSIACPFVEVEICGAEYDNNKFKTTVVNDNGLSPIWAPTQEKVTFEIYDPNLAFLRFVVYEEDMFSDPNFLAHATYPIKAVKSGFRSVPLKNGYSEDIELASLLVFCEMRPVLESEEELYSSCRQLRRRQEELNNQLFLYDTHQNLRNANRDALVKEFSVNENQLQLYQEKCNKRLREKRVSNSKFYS
UniProt P42338: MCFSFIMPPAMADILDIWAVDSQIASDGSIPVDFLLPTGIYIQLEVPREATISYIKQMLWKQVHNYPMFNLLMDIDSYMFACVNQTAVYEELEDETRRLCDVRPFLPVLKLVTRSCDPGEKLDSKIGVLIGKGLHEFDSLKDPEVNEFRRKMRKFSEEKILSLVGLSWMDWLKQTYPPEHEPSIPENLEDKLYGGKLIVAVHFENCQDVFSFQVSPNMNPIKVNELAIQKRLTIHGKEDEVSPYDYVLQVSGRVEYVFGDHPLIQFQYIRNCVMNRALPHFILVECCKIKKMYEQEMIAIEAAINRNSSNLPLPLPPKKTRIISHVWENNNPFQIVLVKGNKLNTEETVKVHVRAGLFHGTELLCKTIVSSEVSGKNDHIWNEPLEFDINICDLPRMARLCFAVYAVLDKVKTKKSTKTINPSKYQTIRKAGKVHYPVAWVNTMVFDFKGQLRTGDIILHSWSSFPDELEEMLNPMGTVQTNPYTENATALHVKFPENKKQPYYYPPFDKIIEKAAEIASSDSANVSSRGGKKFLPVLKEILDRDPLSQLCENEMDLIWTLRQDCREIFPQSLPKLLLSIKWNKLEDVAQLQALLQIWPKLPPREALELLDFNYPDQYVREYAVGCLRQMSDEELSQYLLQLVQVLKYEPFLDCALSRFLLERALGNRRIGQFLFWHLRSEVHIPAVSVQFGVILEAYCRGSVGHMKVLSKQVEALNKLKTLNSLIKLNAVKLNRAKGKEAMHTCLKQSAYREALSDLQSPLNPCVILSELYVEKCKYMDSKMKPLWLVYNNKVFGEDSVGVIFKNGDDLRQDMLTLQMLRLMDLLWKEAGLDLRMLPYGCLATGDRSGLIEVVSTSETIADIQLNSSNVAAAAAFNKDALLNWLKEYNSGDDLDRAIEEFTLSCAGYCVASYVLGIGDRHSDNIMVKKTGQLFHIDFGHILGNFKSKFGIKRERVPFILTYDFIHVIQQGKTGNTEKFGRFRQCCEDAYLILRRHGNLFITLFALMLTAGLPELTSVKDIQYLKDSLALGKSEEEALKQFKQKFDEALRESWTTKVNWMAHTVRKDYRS
UniProt Q03405, whole entry, looked up: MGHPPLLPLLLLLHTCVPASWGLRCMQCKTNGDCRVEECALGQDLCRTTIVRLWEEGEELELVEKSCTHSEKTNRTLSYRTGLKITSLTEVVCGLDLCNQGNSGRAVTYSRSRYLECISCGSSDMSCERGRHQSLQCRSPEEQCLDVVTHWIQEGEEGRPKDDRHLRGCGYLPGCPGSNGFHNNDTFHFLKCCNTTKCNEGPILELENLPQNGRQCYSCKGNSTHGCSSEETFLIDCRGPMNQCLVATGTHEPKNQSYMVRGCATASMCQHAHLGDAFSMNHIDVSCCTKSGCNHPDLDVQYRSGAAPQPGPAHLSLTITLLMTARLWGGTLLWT
UniProt P14618, whole entry, looked up: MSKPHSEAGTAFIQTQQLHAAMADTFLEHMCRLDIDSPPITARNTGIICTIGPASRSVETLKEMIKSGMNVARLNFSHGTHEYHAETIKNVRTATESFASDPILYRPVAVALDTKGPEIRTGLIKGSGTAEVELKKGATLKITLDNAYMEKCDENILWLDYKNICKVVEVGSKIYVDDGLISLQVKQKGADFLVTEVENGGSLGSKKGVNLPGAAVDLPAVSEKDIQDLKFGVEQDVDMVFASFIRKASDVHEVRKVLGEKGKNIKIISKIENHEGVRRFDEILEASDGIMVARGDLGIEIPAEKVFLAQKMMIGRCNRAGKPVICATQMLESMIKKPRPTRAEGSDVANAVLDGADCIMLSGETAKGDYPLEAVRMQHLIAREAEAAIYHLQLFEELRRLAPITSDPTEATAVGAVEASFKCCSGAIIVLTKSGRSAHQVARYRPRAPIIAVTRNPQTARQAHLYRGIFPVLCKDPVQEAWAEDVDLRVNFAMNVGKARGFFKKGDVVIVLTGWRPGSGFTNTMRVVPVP
UniProt O60568: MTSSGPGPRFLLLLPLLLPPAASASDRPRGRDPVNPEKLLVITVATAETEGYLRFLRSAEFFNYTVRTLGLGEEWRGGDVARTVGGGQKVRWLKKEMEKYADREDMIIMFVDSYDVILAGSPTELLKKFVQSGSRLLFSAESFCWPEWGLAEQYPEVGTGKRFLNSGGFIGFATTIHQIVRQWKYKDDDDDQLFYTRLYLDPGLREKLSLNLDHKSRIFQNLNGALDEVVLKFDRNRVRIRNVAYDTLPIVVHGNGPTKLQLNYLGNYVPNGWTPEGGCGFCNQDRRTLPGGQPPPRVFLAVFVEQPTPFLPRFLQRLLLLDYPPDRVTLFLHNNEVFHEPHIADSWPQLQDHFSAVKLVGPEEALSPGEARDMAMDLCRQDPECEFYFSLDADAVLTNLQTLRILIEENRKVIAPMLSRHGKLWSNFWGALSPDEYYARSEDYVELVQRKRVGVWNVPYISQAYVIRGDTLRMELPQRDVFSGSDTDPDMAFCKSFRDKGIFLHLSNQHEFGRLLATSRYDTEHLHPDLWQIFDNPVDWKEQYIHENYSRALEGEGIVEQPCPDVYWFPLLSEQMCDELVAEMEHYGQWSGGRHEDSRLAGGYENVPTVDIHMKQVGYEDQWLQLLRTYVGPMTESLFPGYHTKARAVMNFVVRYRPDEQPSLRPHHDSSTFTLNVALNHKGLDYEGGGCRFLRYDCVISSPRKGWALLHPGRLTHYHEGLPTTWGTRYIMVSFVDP
UniProt Q99570, whole entry, looked up: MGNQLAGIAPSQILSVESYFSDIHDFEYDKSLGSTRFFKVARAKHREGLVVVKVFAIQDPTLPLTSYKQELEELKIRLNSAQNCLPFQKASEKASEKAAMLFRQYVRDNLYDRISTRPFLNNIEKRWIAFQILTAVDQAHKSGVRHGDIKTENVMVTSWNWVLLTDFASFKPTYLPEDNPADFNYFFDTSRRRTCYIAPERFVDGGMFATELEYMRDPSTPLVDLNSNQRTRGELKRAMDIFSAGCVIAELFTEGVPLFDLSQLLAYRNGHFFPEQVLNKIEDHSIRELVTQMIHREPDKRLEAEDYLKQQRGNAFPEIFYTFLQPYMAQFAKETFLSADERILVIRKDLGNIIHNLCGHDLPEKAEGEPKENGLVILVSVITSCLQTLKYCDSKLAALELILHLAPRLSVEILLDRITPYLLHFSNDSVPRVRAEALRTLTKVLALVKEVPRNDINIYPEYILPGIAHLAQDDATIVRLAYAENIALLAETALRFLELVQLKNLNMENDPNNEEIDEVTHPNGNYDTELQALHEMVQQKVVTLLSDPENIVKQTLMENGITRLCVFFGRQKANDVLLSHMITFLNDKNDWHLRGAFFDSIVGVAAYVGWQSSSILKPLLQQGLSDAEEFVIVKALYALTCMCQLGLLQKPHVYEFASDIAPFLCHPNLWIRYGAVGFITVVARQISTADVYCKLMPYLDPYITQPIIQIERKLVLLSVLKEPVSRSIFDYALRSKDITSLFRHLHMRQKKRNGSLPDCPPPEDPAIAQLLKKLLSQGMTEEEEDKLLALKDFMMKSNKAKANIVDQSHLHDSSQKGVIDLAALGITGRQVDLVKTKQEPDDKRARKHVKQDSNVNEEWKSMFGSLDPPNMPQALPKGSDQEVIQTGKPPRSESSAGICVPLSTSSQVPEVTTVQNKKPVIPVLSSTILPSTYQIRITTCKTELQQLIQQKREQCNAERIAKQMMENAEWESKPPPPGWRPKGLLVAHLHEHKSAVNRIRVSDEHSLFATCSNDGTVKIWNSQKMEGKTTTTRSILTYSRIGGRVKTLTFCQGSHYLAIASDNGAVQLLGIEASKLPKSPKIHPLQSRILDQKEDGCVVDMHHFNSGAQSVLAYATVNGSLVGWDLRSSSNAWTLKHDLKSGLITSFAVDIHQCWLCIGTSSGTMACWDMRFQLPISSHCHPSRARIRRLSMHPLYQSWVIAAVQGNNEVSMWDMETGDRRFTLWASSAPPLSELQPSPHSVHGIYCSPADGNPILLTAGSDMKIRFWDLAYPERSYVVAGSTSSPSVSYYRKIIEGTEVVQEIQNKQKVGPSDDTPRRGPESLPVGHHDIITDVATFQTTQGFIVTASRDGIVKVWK
UniProt Q9UG56: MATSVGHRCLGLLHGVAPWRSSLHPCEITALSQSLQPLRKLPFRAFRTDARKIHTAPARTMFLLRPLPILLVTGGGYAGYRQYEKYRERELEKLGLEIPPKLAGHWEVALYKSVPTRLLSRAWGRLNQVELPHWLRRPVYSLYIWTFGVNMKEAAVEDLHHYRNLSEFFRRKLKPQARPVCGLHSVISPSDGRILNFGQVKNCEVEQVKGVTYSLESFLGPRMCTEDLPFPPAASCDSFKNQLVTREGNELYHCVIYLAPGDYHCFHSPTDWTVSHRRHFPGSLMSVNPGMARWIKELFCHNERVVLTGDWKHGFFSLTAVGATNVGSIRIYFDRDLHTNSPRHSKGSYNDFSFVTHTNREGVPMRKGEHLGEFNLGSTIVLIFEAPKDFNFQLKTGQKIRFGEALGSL

Compound: CC1Cc2ccccc2N1C(=O)C1CCCN(C1)C(=O)CCl (mixture of isomers) [TRIM25 ligand 11 (diastereomer mixture)]
Test: probe-labelled cysteine peptide fold change vs DMSO (competition) (log2 fold change); higher = less target engagement (more negative = stronger competition)
Settings: THP-1, incubation time: 4 h
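Also: competitive chemoproteomic profiling in live THP-1 cells with an iodoacetamide desthiobiotin (IA-DTB) probe, comparing probe-labelled peptide intensities in compound-treated cells against DMSO-treated controls.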

| Target | probe-labelled cysteine peptide fold change (10 µM) | probe-labelled cysteine peptide fold change (50 µM) |
| --- | --- | --- |
| PML_P29590_57_CQQCQAEAK (UniProt P29590) | -0.104 | -0.0392 |
| PLEKHF2_Q9H8W4_219_ICDFCYDLLSAGDMATCQPAR (UniProt Q9H8W4) | -0.379 | -0.1 |
| PNPLA6_Q8IY17_991_GCSHIGVLK (UniProt Q8IY17) | -0.0375 | -0.0083 |
| PMPCA_Q10713_142_HGGICDCQTSR (UniProt Q10713) | -0.00383 | 0.228 |
| PLCG2_P16885_937_NQSIAIELSDLVVYCKPTSK (UniProt P16885) | 0.0579 | -0.0729 |
| PLD4_Q96BZ4_379_LLVGCGLNTDPTMFPYLR (UniProt Q96BZ4) | 0.0996 | 0.0738 |
| PIK3CB_P42338_551_EILDRDPLSQLCENEMDLIWTLR (UniProt P42338) | -0.1 | -0.0953 |
| PMPCA_Q10713_266_MVLAGVGVEHEHLVDCAR (UniProt Q10713) | 0.0959 | 0.0674 |
| PLAUR_Q03405_293_SGCNHPDLDVQYR (UniProt Q03405) | 0.118 | -0.0438 |
| PKM_P14618_474_GIFPVLCKDPVQEAWAEDVDLR (UniProt P14618) | -0.373 | -0.303 |
| PLXDC2_Q6UX71_529_EGFIVSEQC (UniProt Q6UX71) | 0.143 | -0.324 |
| PITPNM1_O00562_889_ERPQLAECEEPSIYSPAFPR (UniProt O00562) | 0.225 | 0.124 |
| PLOD3_O60568_698_YDCVISSPR (UniProt O60568) | 0.167 | 0.169 |
| PIK3R4_Q99570_84_LNSAQNCLPFQK (UniProt Q99570) | -0.0256 | -0.0742 |
| PIK3R2_O00459_50_CPQSVGWMPGLNER (UniProt O00459) | -0.193 | -0.169 |
| PLXNC1_O60486_1217_IPENESADVCR (UniProt O60486) | 0.0621 | 0.204 |
| PIK3CB_P42338_392_NDHIWNEPLEFDINICDLPR (UniProt P42338) | -0.172 | 0.347 |
| PMPCA_Q10713_88_FGQFCTVGILINSGSR (UniProt Q10713) | 0.116 | 0.267 |

| Target | probe-labelled cysteine peptide fold change (10 µM) | probe-labelled cysteine peptide fold change (50 µM) |
| --- | --- | --- |
| PIK3R4_Q99570_1011_VSDEHSLFATCSNDGTVK (UniProt Q99570) | 0.204 | 0.275 |
| PLEK_P08567_295_GCVVTSVESNSNGR (UniProt P08567) | -0.156 | 0.00951 |
| PLEC_Q15149_965_QVEVTVHKGDECQLVGPAQPSHWK (UniProt Q15149) | 0.0381 | 0.052 |
| PLOD3_O60568_379_DMAMDLCR (UniProt O60568) | -0.0718 | 0.225 |
| PLCG2_P16885_1090_SIACPFVEVEICGAEYDNNK (UniProt P16885) | -0.123 | 0.0206 |
| PML_P29590_204_TPTLTSIYCR (UniProt P29590) | -0.101 | -0.113 |
| PLEKHA2_Q9HB19_253_THECLVK (UniProt Q9HB19) | -0.018 | 0.0246 |
| PLEC_Q15149_992_VLSSSGSEAAVPSVCFLVPPPNQEAQEAVTRLEAQHQALVTLWHQLHVDMK (UniProt Q15149) | -0.415 | -0.207 |
| PLPBP_O94903_261_CAADVK (UniProt O94903) | -0.0613 | -0.126 |
| PISD_Q9UG56_300_ELFCHNER (UniProt Q9UG56) | 0.0592 | 0.123 |
| PML_P29590_389_LQDLSSCITQGK (UniProt P29590) | -0.0914 | -0.0452 |
| PIK3C3_Q8NEB9_476_EVPDGENLEQDLCTFLISR (UniProt Q8NEB9) | -0.253 | 0.0238 |
| PLEC_Q15149_950_LPLLAVCDYK (UniProt Q15149) | -0.0639 | -0.000541 |
| PML_P29590_129_QIVDAQAVCTR (UniProt P29590) | 0.0212 | -0.0324 |
| PIK3R4_Q99570_358_DLGNIIHNLCGHDLPEK (UniProt Q99570) | 0.0664 | 0.0689 |
| PNKD_Q8N490_347_THCLALQEALGPGPGPTGDDDYSR (UniProt Q8N490) | 0.0381 | -0.298 |
| PLEC_Q15149_3295_SHRVPLDVACAR (UniProt Q15149) | -0.0879 | -0.0747 |

Rewritten tab-delimited: part of the list above
Target	probe-labelled cysteine peptide fold change (10 µM)	probe-labelled cysteine peptide fold change (50 µM)
PLAUR_Q03405_293_SGCNHPDLDVQYR (UniProt Q03405)	0.118	-0.0438
PKM_P14618_474_GIFPVLCKDPVQEAWAEDVDLR (UniProt P14618)	-0.373	-0.303
